# Measurements: PMC3119050, “High-Resolution X-Ray Structure of the Trimeric Scar/WAVE-Complex Precursor Brk1” (PLoS ONE, 2011)
# Results are given in words; binding and its absence hold for the method and conditions named. For part of these data: In cells and extracts the contact can be indirect. Some entries that bind do so weakly or less than the wild type. Sequences can lack the tags named with a protein.
# T1: GST-DdBrk1 (coexpressed with Scar(1-225) and AbiA(1-149)) (Dictyostelium discoideum) (UniProt Q54X65)
# T1 sequence: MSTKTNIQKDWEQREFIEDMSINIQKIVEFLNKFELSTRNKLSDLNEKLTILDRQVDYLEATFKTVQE
# Columns and labels:
# [1] = target: T1, GST-DdBrk1 (coexpressed with Scar(1-225) and AbiA(1-149)) (Dictyostelium discoideum); assay: pull-down; GST-DdBrk1 coexpressed in E. coli with untagged Scar(1-225) and AbiA(1-149); glutathione sepharose affinity chromatography from bacterial extracts, eluted with PBS and 30 mM reduced glutathione
# [2] = target: Dictyostelium discoideum Brk1 (DdBrk1), GST tag removed (Dictyostelium discoideum) (UniProt Q54X65); assay: crystal structure; hanging drop, 40% MPD, 0.2 M CaCl2, 20°C; trimer built from symmetry mates of the 3-fold axis; 1.5 Å; both purified
binding [1],binding [2],Binder
binds,,"AbiA (aa1-149) of Dictyostelium discoideum (domain or fragment, UniProt Q55FT9 1-149) MSESIDINVYSQTTIPNAMAELMDNHNKMEQISAYCKSLYANGDAAQAYEQTQGYAKNALLNVAYHIQTVGTHITSLLQLQTNEMEKLNIEIQTLTQRVRMIHDSTGTNVFSNQDAAKPYKSSLKNRKVDTEATKAPVKYVHKPISYGI"
,binds,"Dictyostelium discoideum Brk1 (DdBrk1), GST tag removed (natural protein, extra amino acids left at the N-terminus after PreScission cleavage of the GST tag; Brk1 (HSPC300 ortholog) of Dictyostelium discoideum, 68 residues; Calculated molar mass 8.61 kg/mol per chain; homotrimer by sedimentation equilibrium; also called DdHSPC300; HSPC300; source: E. coli BL21 DE3, purified (glutathione sepharose, PreScission cleavage, Mono Q, Superdex-S75); not shown: GST, N-terminal, …) GPLGSMSTKTNIQKDWEQREFIEDMSINIQKIVEFLNKFELSTRNKLSDLNEKLTILDRQVDYLEATFKTVQE"
binds,,"Scar (aa1-225) of Dictyostelium discoideum (domain or fragment, UniProt Q54NF8 1-225) MVLITRYLPSVTDNNQPALEGQSKDQIVDTVITSTTVGIINQLTMLVAHSNSIFTALANDANLVTQRIEKLGSRIRPLIQSIPSIEDYHRNTSIDTMNSKPRAEFHADNSERNQHFTHASIPASINTVYEKCKPPPNLQLLDPYMDDGQKSLKLYTNPDFFMDEWVAEQQKLHEEARQRKRERREARLKKKGEKNEVEVKKVKSVTKVRYDPVTGEKITINIESP"
